# Reference: PubChem BioAssay AID2685 (National Center for Advancing Translational Sciences (NCATS), 2010)
# “And” between values parts separate entries of the source, which are not always exact repeats. Identical values can stand only once. The list shows a part of the results. The main result of the screen is listed elsewhere. These columns were measured beside it and carry no call. Compounds called inactive in the main read-out are mostly missing here. The note in brackets gives the kind of curve behind each potency; many fits are weak.
# Test: qHTS Assay for Lipid Storage Modulators in Drosophila S3 Cells;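 for cell number change: cells counted by Cell Tracker Red CMTPX staining in the red channel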
# Details: BODIPY lipid droplet fluorescence, 18-24 h; for cell number change: measured here: cell count max response, cells fed with added oleic acid
# Procedure, shortened: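 Laser-scanning cytometry quantifies lipid droplet accumulation (500–530 nm total intensity; droplet/cell object ratio) in oleic acid-fed (400 uM added) Drosophila S3 cells treated with a concentration series. 20 uM Triacsin C defined 100% inhibition.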
# [1] = measured here: cell number channel AC50, cells fed with added oleic acid
# [2] = measured here: lipid fluorescence (Fed channel) AC50, cells fed with added oleic acid
Compound,cell number change,AC50 [1],AC50 [2]
N#C/C(=C\C=C\c1ccccc1)c1nc(-c2ccc(Cl)cc2)cs1,62.7%,"14.6 µM [rising, partial curve]",
CCOCCc1nnc(NC(=O)c2cc(OC)c(OC)cc2[N+](=O)[O-])s1,40.8%,"29.1 µM [rising, single point]",
Cn1ncc2c(NCc3ccccc3)ncnc21,1.39% and 107%,"206 nM [rising, full curve, poor fit] and 29.1 µM [rising, single point]","0.164 µM [falling, full curve, poor fit]"
CCCC(=O)Nc1c2c(nn1-c1ccc(OC)cc1)CS(=O)(=O)C2,78.5%,,
COc1ccc(-n2nc3c(c2NC(=O)c2cc(Br)ccc2Cl)CS(=O)C3)cc1 (stereo not drawn),18.5%,,"0.92 µM [rising, partial curve]"
CCCC(=O)Nc1nc(C)c(-c2csc(Nc3ccc(Cl)cc3)n2)s1,-50.9%,"20.6 µM [falling, partial curve, poor fit]","20.6 µM [falling, partial curve]"
COc1ccc(CCNC(=O)c2csc3c2CCCC3)cc1,-2.73%,,
Cc1ccc(NC(=O)c2ccncc2)cc1[N+](=O)[O-],14%,,"0.731 µM [rising, partial curve, poor fit]"
COc1ccc(N(C(=O)c2cccnc2)S(=O)(=O)c2ccc3c4c(cccc24)C(=O)N3C)cc1,4.23%,,"0.517 µM [rising, full curve, poor fit]"
NCCCC[C@H]1CN=C(N)N1CCC12CC3CC(CC(C3)C1)C2,-5.28%,,"0.00461 µM [falling, full curve, poor fit]"
O=c1ccc(NS(=O)(=O)c2ccc(Cl)cc2)cn1Cc1ccc(Cl)c(Cl)c1,-14%,,"2.59 µM [falling, partial curve]"
CCOC(=O)C(=Nc1ccccc1)NO,-33.1%,"0.291 µM [falling, full curve]","1.3 µM [falling, full curve]"
CC1CCN(C(=O)C(Cc2ccccc2)n2cccc2)CC1 (stereo not drawn),18.8%,,"2.06 µM [falling, partial curve]"
Cc1ccc(/C=N/NC(=O)c2cccs2)o1,75.6%,"18.4 µM [rising, single point]","0.651 µM [rising, partial curve]"
O=C(COc1cccc(Cl)c1)Nc1ccc2c(c1)CCC2,,"6.51 µM [rising, single point]",
O=C(Nc1ccc(-c2n[nH]c(=S)o2)cc1)c1ccccc1Cl,-13.5%,,"11.6 µM [falling, partial curve, poor fit]"
Cc1nn(-c2ccccc2)nc1C(=O)Nc1ccc2c(c1)OCCO2,3.41%,,"0.00461 µM [rising, full curve, poor fit]"
Cc1ccnc2nc(C(=O)Nc3nc4ccccc4s3)nn12,-20%,,"16.4 µM [falling, partial curve]"
CCOc1cc(/C=C2\CCCC(C(=O)C(F)(F)F)=C2O)ccc1O,-51%,"29.1 µM [falling, single point]","16.4 µM [falling, partial curve]"

Compound,cell number change,AC50 [1],AC50 [2]
Cc1ccc(C)c(OCC(O)CN2CCC(CN3C(=O)c4cccc5cccc(c45)C3=O)CC2)c1 (stereo not drawn),18.8%,,"6.51 µM [falling, partial curve, poor fit]"
CC(C)CCNC(=O)c1nnc(Cc2ccc(Cl)cc2)o1,,"0.651 µM [falling, full curve, poor fit]",
O=C(Nc1cccc(OCC(=O)N2CCOCC2)c1)c1cccc(Cl)c1,-23.3%,,"29.1 µM [rising, single point]"
COc1ccc(OC)c(/C=N/c2oc(-c3ccco3)c(-c3ccco3)c2C#N)c1,5.78%,,
COc1ccc(C(=O)NCC(O)COc2ccc(C(C)(C)C)cc2)cc1[N+](=O)[O-] (stereo not drawn),-12.3%,,"0.116 µM [falling, full curve, poor fit]"
Cc1ccccc1Nc1nc(N)nc(CSCc2c(C)noc2C)n1,,"0.103 µM [rising, partial curve, poor fit]","0.0651 µM [rising, full curve]"
COC(=O)c1sccc1NC(=O)c1ccc(OC)cc1OC,-50%,"18.4 µM [falling, single point]","6.51 µM [rising, single point]"
Nc1nnc(SCCOc2ccc(Br)cc2)s1,12.6%,,"2.06 µM [rising, partial curve]"
CCOC(=O)C1CCCN(/C=C2\SC(=S)N(CC)C2=O)C1 (stereo not drawn),-28.7%,"0.164 µM [falling, full curve, poor fit]",
CC1(C)Oc2ccc3ccc(=O)oc3c2/C(=C/Nc2ccccc2)C1=O,19.4%,"6.51 µM [rising, single point]","6.51 µM [rising, single point]"
Cc1ccc(C)c(Cn2cnc3c(nnn3-c3ccc(F)cc3)c2=O)c1,4.21%,"1.84 µM [rising, partial curve]","1.03 µM [rising, full curve]"
O=C(O)c1ccc(NC(=S)Nc2ccccc2)cc1,,,"6.51 µM [rising, single point]"
Cn1cccc1C(=O)NC1CCCCC1,-27%,"3.66 µM [falling, full curve, poor fit]","1.84 µM [falling, full curve]"
C/C(CC(=O)Nc1ccccn1)=N\NC(=O)c1ccc2ccccc2c1,8.44%,,"1.03 µM [rising, full curve]"
COc1ccc(-n2c(C)cc3cc(OC(C)=O)ccc32)cc1,-5.03%,,"29.1 µM [rising, single point]"
Cc1ccnc(SCc2ccc(C(=O)O)cc2)n1,27.5%,,
Cc1ccc(-c2nnc(SCC(=O)n3c4c(c5ccccc53)CCCC4)o2)cc1,,"0.82 µM [falling, single point]","29.1 µM [falling, single point]"
CC(C)N(Cc1nc(-c2ccccc2)no1)C(=O)CCCN1C(=O)c2ccccc2C1=O,1.42%,,"2.06 µM [rising, partial curve]"
NS(=O)(=O)c1ccc(CCNC(=O)CNC(=O)C2CCCCC2)cc1,4.15%,,"29.1 µM [rising, single point]"

Compound,cell number change,AC50 [1],AC50 [2]
O=C(N/C=C\c1ccccc1)NCc1ccc(Cl)cc1,-0.903%,,
COC(=O)c1cc2nc(-c3ccc(C)cc3)cc(C(F)(F)F)n2n1,-6.44%,,"6.51 µM [falling, single point]"
CCOc1ccccc1N1CCN(C(=O)c2ccc3[nH]c(C)c(C)c3c2)CC1,9.54%,,"29.1 µM [rising, single point]"
C[C@@]12C(=O)N(c3ccc(F)cc3)C(=O)N1[C@@H]1c3ccccc3OC[C@@H]1[C@H]2c1ccccc1,5.69%,,
CC(C)CN(C(=O)COC(=O)C1=COCCO1)c1c(N)n(Cc2ccccc2)c(=O)[nH]c1=O,-22.1%,"0.82 µM [falling, partial curve, poor fit]",
O=C(/C(=N/N=C/c1ccc(O)c(O)c1)c1ccccc1)c1ccccc1,-65.2%,"14.6 µM [falling, partial curve]","14.6 µM [falling, partial curve]"
Cc1ccc(N(C(=O)c2snc(C(N)=O)c2N)C(C(=O)NC2CCCC2)c2ccco2)cc1 (stereo not drawn),-1.61%,,"0.103 µM [rising, full curve, poor fit]"
CC(C)OCCCNC(=O)Cc1ccc(Br)cc1,-12.4%,"6.51 µM [rising, single point]","5.8 µM [rising, single point]"
CC(C)(C)[C@@H]1C=C(C(N)=O)O[C@H](OCc2ccc(CO)cc2)C1,-15.5%,,"1.46 µM [falling, partial curve, poor fit]"
COCn1ccnc1C(O)(c1ccc(OC)cc1)c1ccc(OC)cc1,32%,"3.66 µM [rising, full curve]","0.58 µM [rising, full curve]"
NC(=O)C1CCN(C(=O)C2CCN(C(=O)Nc3ccccc3)CC2)CC1,-19.7%,,
Cc1cccc(NC(=O)c2cc(NC(=O)c3ccccc3)ccc2N2CCCCC2)c1,59.2%,"0.058 µM [rising, full curve, poor fit]","3.66 µM [rising, full curve]"
CCCCCCC(=O)N(O)C1CC(=O)N(c2ccc(F)cc2)C1=O (stereo not drawn),-68%,"18.4 µM [falling, single point]","20.6 µM [falling, partial curve]"
COc1cccc(/C=C(/C(=O)OCC(=O)NC2CCCC(C)C2C)c2ccccc2)c1 (stereo not drawn),-2.59%,,"0.517 µM [rising, full curve]"
CCC(=O)N1CCN(c2ccc(NC(=O)c3c(F)c(F)c(OC)c(F)c3F)cc2)CC1,7.13%,,
O=C(CCCCn1c(=O)c2ccccc2n(Cc2ccc(Cl)cc2)c1=O)NCc1ccco1,-120%,"29.1 µM [falling, single point]","29.1 µM [falling, single point]"
Cc1ccc(-c2nc3ncccc3o2)cc1NC(=O)COc1ccccc1,27%,"0.184 µM [rising, full curve, poor fit]","6.51 µM [rising, partial curve, poor fit]"
O=C(NC1CCCCCCC1)c1cc(F)c(F)cc1Cl,63.1%,,
CCN(CC)C(=O)CSC1=N/C(=C/c2ccco2)C(=O)N1c1ccc(OC)c(Cl)c1,-27.1%,,"18.4 µM [falling, single point]"
